Results as given in paper doi:10.1101/2025.10.29.685433.

The chains behind the UniProt entries cited, without tags or fusion partners. Where a name states a change or a piece, a line headed by the entry shows the natural chain unless it says otherwise.
UniProt Q12522: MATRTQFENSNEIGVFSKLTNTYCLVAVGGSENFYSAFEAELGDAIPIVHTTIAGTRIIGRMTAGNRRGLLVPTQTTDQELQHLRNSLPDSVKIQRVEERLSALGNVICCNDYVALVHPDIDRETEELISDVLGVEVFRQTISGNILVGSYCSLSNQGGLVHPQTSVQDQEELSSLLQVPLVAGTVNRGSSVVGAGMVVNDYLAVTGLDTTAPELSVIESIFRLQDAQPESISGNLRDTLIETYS

T1: uL16 P-site loop mutant (uL16^mut), C-terminally Flag-tagged (yeast (S. cerevisiae)) (UniProt P41805)
T1 sequence: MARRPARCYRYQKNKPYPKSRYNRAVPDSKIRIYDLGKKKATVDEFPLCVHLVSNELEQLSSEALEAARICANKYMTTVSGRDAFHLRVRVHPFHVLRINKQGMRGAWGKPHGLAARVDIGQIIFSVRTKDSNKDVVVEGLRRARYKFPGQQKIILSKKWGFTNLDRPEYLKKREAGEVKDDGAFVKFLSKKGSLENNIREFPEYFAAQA


What was measured:
Assay in all cases: affinity purification with mass spectrometry
[1] = target: T1, uL16 P-site loop mutant (uL16^mut), C-terminally Flag-tagged (yeast (S. cerevisiae))
[2] = target: T1, uL16 P-site loop mutant (uL16^mut), C-terminally Flag-tagged (yeast (S. cerevisiae)); remark: listed apart in the source
[3] = target: T1, uL16 P-site loop mutant (uL16^mut), C-terminally Flag-tagged (yeast (S. cerevisiae)); remark: listed apart in the source

Row | binding [1] | binding [2] | binding [3] | Molecule
1 | binds | – | – | Tif6-V192F (from UniProt Q12522 1-245)
2 | binds | binds | binds | Reh1 (protein, UniProt Q06709 1-432) MSSTFFTCNCCVIQFKTSDLQRYHMKTEWHRYNLKRRIANLPPIGAEQFAEKLQISEKEQAENQVDEFGFPVLKPVMNQSNALPQKQKKPIKSKRGRKVGTNLLKRKDRDIAKEKQNRSVSPSGSISSQLSNLTVGTENTNTDYGEDTVSEYGFTSDSNYEYATSDEELDIADKPSDKENEKITITECIYCGKDNKEVERNVKHMFSEHGLFIPERSYLIDLNGLLEFLIKMIVIDHNCLCCNFHGSGLESIRAHMASKRHCRLPYETKEERQLFAPFYDFTYDDHSISKNLQNDRAITSKLSSVYGAKNDEEDGEVDITLVSSENDINANYTTVSIDESGLELTLPTGARLGHRAGQRYYRQNLPSQPNPNESRRTITAADRRMVSGVTEKQYKKGMKKMQQLEKNAINTQIRREIKRVNFQTHYRDELLQ
3 | – | – | binds | Yvh1 (protein, UniProt Q02256 1-364) MAGNANSVDEEVTRILGGIYLGGIRPIIDHRPLGAEFNITHILSVIKFQVIPEYLIRKGYTLKNIPIDDDDVTDVLQYFDETNRFIDQCLFPNEVEYSPRLVDFKKKPQRGAVFAHCQAGLSRSVTFIVAYLMYRYGLSLSMAMHAVKRKKPSVEPNENFMEQLHLFEKMGGDFVDFDNPAYKQWKLKQSIKLDPSGSELVSNSGMFKDSESSQDLDKLTEAEKSKVTAVRCKKCRTKLALSTSFIAHDPPSKESSEGHFIKRAANSHRIIDIQESQANCSHFFIEPLKWMQPELQGKQELEGKFSCPGCSSKVGGYNWKGSRCSCGKWVIPAIHLQTSKVDQFPLQSTALPNMVNFESEKVNR

Like-named read-outs stand apart in the source and are kept apart here. Results are given in words; binding and its absence hold for the method and conditions named. Binding seen in cells or lysates may run through a third protein. A yes stands for co-enrichment or nearness to the bait. Other partners may have been found. Where a sequence is shown, tags or fusion partners need not be part of it.
